Measured values taken from patent publication US20060024698, “Method to protect DNA ends” (published 2006).

Biological target: T1, Exonuclease I (Escherichia coli) (UniProt P04995)
T1 sequence (looked up, limits assumed): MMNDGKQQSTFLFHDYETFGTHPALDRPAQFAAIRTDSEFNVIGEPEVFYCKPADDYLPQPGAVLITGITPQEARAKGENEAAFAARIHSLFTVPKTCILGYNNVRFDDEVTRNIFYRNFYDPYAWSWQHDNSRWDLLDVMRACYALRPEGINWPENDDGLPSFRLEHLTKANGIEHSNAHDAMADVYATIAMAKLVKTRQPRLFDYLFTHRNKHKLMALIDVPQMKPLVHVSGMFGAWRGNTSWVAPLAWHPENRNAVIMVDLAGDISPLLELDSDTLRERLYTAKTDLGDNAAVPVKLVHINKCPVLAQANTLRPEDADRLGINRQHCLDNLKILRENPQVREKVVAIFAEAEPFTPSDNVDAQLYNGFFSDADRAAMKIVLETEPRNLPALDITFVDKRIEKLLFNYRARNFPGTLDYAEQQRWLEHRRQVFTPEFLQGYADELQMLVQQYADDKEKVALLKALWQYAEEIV
Experiment: enzyme reaction in vitro
Details: removes 3' single-strand extension; 10 mM MgCl2, 37 C; blocked by DdrA; label: 5'-32P on 37 nt strand

CTAGCATTAGTTTCTTCCTTAAACAATTTGAAAGACC / GGTCTTTCAAATTGTTTAAGGAAGAAACTAATGCTAGCCACGGTCCGAGCC [duplex 37/51 with 3' extension]
activity on this sequence: active

Construct, isoform or probe ends are uncertain for at least one entry. Protein sequences can lack the tags named with them.
